{"sequences": {"note": "By UniProt entry, the sequences of proteins in these tests, tags left out. Where a name states a change or a piece, a line headed by the entry shows the natural chain unless it says otherwise.", "UniProt Q96T88": "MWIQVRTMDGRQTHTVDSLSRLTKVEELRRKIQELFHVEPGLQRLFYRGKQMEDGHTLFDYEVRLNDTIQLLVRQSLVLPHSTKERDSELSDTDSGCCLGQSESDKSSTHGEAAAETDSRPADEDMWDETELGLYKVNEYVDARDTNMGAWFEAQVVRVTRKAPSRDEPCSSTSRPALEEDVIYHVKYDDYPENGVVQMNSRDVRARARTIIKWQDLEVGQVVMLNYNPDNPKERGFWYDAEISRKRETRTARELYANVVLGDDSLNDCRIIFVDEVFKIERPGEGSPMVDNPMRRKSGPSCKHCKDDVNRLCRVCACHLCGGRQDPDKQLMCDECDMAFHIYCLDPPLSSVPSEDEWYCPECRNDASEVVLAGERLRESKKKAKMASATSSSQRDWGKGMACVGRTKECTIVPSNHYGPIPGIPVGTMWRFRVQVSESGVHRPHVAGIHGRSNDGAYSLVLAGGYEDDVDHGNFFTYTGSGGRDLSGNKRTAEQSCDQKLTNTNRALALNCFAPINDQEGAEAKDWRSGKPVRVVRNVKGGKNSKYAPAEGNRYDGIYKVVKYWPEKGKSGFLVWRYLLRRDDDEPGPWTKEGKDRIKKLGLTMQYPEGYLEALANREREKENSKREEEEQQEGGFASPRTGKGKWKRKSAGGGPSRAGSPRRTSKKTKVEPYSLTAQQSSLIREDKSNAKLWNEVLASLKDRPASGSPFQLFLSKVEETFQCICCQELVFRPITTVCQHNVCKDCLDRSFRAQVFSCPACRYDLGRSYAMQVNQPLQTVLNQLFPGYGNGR", "UniProt Q9BZL1": "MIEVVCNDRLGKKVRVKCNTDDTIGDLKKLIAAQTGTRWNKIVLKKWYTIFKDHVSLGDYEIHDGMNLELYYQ", "UniProt Q9BQI0": "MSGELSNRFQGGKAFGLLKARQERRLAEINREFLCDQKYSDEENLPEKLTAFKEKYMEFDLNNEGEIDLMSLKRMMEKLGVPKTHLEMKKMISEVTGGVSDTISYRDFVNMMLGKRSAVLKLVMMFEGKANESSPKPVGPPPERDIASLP", "UniProt Q99961": "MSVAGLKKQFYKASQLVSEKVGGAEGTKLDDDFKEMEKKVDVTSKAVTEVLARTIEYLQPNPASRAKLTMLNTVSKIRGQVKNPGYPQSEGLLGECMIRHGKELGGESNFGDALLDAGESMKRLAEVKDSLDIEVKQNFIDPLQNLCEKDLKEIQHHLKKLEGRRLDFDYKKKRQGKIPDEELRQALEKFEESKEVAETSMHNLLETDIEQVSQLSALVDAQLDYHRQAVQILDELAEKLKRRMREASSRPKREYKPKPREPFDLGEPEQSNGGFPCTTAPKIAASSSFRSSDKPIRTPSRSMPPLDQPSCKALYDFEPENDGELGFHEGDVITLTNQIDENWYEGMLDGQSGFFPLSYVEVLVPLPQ", "UniProt Q9BW92": "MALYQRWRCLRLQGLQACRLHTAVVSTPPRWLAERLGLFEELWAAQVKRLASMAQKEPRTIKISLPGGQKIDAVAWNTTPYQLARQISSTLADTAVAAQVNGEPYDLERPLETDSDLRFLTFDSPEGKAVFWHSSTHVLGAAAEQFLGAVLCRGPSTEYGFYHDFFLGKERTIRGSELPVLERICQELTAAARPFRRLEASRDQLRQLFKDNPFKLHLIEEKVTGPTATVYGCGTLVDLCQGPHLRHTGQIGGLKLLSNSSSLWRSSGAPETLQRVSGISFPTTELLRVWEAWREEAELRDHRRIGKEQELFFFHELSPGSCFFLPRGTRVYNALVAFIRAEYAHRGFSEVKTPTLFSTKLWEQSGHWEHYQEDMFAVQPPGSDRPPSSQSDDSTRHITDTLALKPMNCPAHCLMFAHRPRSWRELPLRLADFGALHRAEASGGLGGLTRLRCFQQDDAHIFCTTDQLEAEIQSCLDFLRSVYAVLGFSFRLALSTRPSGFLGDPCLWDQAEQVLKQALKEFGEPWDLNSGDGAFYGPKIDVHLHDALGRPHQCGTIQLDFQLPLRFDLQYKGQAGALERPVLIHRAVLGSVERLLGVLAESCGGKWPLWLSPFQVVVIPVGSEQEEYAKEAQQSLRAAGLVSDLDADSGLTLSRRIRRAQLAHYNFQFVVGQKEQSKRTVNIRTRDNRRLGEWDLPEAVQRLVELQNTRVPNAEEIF", "UniProt Q9BUI4": "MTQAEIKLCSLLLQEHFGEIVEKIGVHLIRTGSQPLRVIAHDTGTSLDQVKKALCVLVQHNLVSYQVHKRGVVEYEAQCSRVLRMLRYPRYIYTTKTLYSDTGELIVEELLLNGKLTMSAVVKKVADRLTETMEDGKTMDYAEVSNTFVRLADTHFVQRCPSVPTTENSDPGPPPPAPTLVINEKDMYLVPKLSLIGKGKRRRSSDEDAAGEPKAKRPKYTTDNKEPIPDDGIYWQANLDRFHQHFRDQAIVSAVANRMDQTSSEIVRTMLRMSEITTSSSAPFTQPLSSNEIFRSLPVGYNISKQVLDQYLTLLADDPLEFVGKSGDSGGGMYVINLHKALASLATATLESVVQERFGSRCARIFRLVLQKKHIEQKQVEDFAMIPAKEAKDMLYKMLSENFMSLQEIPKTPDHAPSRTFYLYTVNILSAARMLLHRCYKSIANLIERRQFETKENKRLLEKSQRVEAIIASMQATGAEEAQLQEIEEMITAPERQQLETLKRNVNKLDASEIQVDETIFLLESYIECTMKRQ", "UniProt Q9BQ67, whole entry": "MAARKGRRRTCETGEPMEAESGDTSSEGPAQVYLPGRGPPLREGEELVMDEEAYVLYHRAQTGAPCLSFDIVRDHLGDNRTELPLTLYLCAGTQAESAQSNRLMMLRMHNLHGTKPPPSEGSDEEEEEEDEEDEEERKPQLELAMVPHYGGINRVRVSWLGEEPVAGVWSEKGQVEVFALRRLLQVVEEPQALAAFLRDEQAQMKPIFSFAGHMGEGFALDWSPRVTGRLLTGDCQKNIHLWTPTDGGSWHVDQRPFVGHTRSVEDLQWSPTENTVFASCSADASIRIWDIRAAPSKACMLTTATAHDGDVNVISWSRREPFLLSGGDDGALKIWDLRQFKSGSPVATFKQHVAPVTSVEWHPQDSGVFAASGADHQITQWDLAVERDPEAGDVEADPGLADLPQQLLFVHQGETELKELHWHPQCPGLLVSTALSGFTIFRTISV", "UniProt Q99615": "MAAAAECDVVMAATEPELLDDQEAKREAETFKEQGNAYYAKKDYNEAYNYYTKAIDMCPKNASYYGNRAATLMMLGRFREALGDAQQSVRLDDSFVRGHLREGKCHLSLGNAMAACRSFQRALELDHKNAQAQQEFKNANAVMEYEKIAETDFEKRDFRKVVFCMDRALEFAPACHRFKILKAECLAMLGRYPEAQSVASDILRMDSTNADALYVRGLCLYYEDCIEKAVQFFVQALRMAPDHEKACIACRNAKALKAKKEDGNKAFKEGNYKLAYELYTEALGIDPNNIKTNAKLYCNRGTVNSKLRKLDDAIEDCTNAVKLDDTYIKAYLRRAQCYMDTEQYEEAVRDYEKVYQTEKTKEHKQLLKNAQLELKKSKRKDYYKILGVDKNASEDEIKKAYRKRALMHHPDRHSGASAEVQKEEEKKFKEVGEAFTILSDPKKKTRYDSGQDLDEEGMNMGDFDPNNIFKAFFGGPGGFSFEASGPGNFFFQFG", "UniProt Q9BRA0": "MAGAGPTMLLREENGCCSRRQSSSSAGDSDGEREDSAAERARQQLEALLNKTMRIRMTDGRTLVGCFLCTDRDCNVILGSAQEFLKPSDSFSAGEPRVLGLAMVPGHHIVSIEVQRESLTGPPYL", "UniProt Q99873, whole entry, looked up": "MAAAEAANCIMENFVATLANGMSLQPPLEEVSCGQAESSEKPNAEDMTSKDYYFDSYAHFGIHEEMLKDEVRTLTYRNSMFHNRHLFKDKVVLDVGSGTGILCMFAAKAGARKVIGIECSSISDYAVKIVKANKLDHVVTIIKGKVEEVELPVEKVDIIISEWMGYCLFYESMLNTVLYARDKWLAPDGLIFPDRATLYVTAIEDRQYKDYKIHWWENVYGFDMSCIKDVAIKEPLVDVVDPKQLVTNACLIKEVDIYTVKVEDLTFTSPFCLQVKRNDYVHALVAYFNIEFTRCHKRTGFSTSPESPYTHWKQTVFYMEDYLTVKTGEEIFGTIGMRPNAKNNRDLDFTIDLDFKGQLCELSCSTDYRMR", "UniProt Q9BYX2": "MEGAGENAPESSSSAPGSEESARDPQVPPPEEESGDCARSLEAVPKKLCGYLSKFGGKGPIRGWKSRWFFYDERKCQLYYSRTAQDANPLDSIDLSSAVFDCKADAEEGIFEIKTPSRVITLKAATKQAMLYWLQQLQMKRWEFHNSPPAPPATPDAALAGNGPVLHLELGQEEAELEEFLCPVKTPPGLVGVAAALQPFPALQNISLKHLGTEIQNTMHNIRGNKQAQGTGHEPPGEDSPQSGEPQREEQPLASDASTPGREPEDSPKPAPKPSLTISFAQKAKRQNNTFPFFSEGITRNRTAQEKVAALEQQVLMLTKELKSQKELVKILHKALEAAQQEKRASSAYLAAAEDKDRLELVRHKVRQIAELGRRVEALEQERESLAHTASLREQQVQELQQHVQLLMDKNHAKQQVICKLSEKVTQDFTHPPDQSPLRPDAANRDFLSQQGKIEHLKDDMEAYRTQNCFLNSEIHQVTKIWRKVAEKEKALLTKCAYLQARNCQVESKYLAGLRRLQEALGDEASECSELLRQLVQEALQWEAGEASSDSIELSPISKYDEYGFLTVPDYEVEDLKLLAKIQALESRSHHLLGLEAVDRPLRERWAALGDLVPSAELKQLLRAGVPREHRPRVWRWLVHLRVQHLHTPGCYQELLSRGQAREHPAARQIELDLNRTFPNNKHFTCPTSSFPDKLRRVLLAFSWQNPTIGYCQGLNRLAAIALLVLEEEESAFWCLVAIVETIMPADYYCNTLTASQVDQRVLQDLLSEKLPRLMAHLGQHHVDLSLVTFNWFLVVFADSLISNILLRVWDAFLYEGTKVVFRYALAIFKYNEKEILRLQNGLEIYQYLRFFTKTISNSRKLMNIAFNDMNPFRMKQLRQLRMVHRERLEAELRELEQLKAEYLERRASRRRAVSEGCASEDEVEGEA", "UniProt Q9BX63": "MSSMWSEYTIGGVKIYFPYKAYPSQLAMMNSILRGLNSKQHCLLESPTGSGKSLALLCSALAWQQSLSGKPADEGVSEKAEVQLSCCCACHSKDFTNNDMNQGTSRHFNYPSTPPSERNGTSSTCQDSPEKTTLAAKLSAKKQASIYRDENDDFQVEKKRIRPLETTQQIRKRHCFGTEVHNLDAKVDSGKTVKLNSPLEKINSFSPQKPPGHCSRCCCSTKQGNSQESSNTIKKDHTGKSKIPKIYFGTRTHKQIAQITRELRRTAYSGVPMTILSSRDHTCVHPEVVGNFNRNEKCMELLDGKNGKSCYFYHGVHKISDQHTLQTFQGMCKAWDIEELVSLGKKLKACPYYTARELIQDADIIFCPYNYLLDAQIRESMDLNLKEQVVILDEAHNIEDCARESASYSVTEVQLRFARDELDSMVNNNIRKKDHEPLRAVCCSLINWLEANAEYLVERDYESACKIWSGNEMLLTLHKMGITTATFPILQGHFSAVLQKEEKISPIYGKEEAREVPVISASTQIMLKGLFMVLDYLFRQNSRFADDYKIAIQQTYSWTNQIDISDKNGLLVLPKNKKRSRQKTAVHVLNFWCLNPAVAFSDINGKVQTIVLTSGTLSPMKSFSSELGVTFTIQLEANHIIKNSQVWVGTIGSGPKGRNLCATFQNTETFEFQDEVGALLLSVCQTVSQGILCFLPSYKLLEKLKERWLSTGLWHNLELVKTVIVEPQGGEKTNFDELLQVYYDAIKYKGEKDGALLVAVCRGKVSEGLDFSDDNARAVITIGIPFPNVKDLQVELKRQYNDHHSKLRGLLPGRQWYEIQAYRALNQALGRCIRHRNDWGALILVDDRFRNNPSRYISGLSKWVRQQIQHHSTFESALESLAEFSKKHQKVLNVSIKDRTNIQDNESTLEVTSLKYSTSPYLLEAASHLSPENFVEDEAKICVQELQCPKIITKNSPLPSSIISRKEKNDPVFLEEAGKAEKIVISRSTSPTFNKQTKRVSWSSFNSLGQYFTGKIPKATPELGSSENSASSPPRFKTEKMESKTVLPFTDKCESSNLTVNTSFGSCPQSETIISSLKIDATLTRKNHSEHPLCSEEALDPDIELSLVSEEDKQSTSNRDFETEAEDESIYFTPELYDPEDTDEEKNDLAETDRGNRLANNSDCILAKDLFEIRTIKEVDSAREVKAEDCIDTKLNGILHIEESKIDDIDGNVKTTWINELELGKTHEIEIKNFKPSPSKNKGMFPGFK", "UniProt Q99943": "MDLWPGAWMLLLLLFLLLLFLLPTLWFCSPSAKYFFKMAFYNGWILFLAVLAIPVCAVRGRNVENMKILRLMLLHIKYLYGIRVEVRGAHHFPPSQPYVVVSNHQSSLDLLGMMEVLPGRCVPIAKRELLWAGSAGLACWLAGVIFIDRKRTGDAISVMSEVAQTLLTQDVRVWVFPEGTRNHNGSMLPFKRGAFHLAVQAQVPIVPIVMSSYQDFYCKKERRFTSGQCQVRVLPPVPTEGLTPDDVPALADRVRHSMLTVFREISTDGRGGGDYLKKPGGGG"}, "source": "the supplement of paper PMC6411743", "note": "± gives the standard deviation of the averaged measurements. Only a part is listed here, and it is no random draw."}
{"compound": "Nc1ncnc2c1ncn2[C@@H]1O[C@H](COP(=O)(O)OP(=O)(O)OP(=O)(O)O)[C@@H](O)[C@H]1O [adenosine triphosphate]", "assay": "NP40-soluble protein abundance relative to vehicle (solubility fold change) (ratio); higher = more soluble protein in presence of ATP", "settings": "concentration: 1mM", "how_it_was_run": "(§1)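 In three independent experiments, Jurkat crude lysate made by Dounce homogenisation was treated for 10 min at room temperature and then 3 min at 37 °C with eight concentrations ranging from 0.1 to 10 mM. It was then solubilised with 0.8% NP40 plus benzonase for 60 min at 4 °C and ultracentrifuged. The supernatant was TMT-labelled for LC-MS/MS, and each value is the fold change against the detergent-processed vehicle for the same replicate, using vsn-normalised intensities.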"}
{"target": "UniProt Q9BQF6 and related entries", "NP40-soluble protein abundance": "1.13 ± 0.072"}
{"target": "UniProt Q9BZ29-4|A0A088AWN3|A0A0A0MRA7|A0A0A0MSY4|Q9BZ29 and related entries", "NP40-soluble protein abundance": "1.08 ± 0.13"}
{"target": "TRMT61B (UniProt Q9BVS5)", "NP40-soluble protein abundance": "1 ± 0.087"}
{"target": "UniProt Q9BYV8", "NP40-soluble protein abundance": "0.983 ± 0.068"}
{"target": "UHRF1 (UniProt Q96T88)", "NP40-soluble protein abundance": "1.07 ± 0.065"}
{"target": "POP1 (UniProt Q99575)", "NP40-soluble protein abundance": "0.994 ± 0.038"}
{"target": "NLN (UniProt Q9BYT8)", "NP40-soluble protein abundance": "1.01 ± 0.084"}
{"target": "RNF2 (UniProt Q99496)", "NP40-soluble protein abundance": "1.06 ± 0.025"}
{"target": "UniProt Q9BZL1", "NP40-soluble protein abundance": "1.04 ± 0.061"}
{"target": "SIKE1 (UniProt Q9BRV8)", "NP40-soluble protein abundance": "0.917 ± 0.13"}
{"target": "UniProt Q9BQI0 and related entries", "NP40-soluble protein abundance": "0.867 ± 0.14"}
{"target": "UniProt Q9BQC6", "NP40-soluble protein abundance": "1.04 ± 0.044"}
{"target": "SH3GL1 (UniProt Q99961)", "NP40-soluble protein abundance": "0.984 ± 0.055"}
{"target": "SMAD5 (UniProt Q99717)", "NP40-soluble protein abundance": "1.08 ± 0.089"}
{"target": "TARS2 (UniProt Q9BW92)", "NP40-soluble protein abundance": "1.06 ± 0.09"}
{"target": "MRPL9 (UniProt Q9BYD2)", "NP40-soluble protein abundance": "1.05 ± 0.078"}
{"target": "POLR3C (UniProt Q9BUI4)", "NP40-soluble protein abundance": "1.01 ± 0.096"}
{"target": "GRWD1 (UniProt Q9BQ67)", "NP40-soluble protein abundance": "1.03 ± 0.038"}
{"target": "UniProt Q96T76 and related entries", "NP40-soluble protein abundance": "0.944 ± 0.06"}
{"target": "UniProt Q9BXW9 and related entries", "NP40-soluble protein abundance": "0.922 ± 0.027"}
{"target": "DNAJC7 (UniProt Q99615)", "NP40-soluble protein abundance": "0.97 ± 0.015"}
{"target": "SDF2 (UniProt Q99470)", "NP40-soluble protein abundance": "1.02 ± 0.069"}
{"target": "BACH2 (UniProt Q9BYV9)", "NP40-soluble protein abundance": "1.05 ± 0.12"}
{"target": "UniProt Q99729-3|Q99729", "NP40-soluble protein abundance": "1.04 ± 0.082"}
{"target": "UniProt Q9BRA0 and related entries", "NP40-soluble protein abundance": "0.904 ± 0.066"}
{"target": "VAT1 (UniProt Q99536)", "NP40-soluble protein abundance": "1 ± 0.057"}
{"target": "RBCK1 (UniProt Q9BYM8)", "NP40-soluble protein abundance": "0.969 ± 0.042"}
{"target": "UniProt Q99873-3|Q99873-4", "NP40-soluble protein abundance": "1.13 ± 0.25"}
{"target": "UniProt Q9BYX2 and related entries", "NP40-soluble protein abundance": "0.995 ± 0.093"}
{"target": "UniProt Q99708-3|I6L8A6 and related entries", "NP40-soluble protein abundance": "0.952 ± 0.045"}
{"target": "BRIP1 (UniProt Q9BX63)", "NP40-soluble protein abundance": "1.04 ± 0.057"}
{"target": "AGPAT1 (UniProt Q99943)", "NP40-soluble protein abundance": "0.966 ± 0.066"}
{"target": "UniProt Q9BRR9-2|Q9BRR9-4|Q9BRR9-5|R4GN15", "NP40-soluble protein abundance": "0.873 ± 0.02"}
{"target": "PSMG3 (UniProt Q9BT73)", "NP40-soluble protein abundance": "0.95 ± 0.022"}
{"compound": "Nc1ncnc2c1ncn2[C@@H]1O[C@H](COP(=O)(O)OP(=O)(O)OP(=O)(O)O)[C@@H](O)[C@H]1O [adenosine triphosphate]", "assay": "NP40-soluble protein abundance relative to vehicle (solubility fold change) (ratio); higher = more soluble protein in presence of ATP", "settings": "concentration: 2mM", "how_it_was_run": "as §1"}
{"target": "UniProt Q9BQF6 and related entries", "NP40-soluble protein abundance": "1.14 ± 0.074"}
{"target": "UniProt Q9BZ29-4|A0A088AWN3|A0A0A0MRA7|A0A0A0MSY4|Q9BZ29 and related entries", "NP40-soluble protein abundance": "0.978 ± 0.021"}
{"target": "TRMT61B (UniProt Q9BVS5)", "NP40-soluble protein abundance": "1.02 ± 0.087"}
{"target": "UniProt Q9BYV8", "NP40-soluble protein abundance": "1.01 ± 0.034"}
{"target": "UHRF1 (UniProt Q96T88)", "NP40-soluble protein abundance": "1.07 ± 0.073"}
{"target": "POP1 (UniProt Q99575)", "NP40-soluble protein abundance": "1.01 ± 0.035"}
{"target": "NLN (UniProt Q9BYT8)", "NP40-soluble protein abundance": "0.999 ± 0.067"}
{"target": "RNF2 (UniProt Q99496)", "NP40-soluble protein abundance": "1.1 ± 0.027"}
{"target": "UniProt Q9BZL1", "NP40-soluble protein abundance": "1.11 ± 0.06"}
{"target": "SIKE1 (UniProt Q9BRV8)", "NP40-soluble protein abundance": "0.856 ± 0.079"}
{"target": "UniProt Q9BQI0 and related entries", "NP40-soluble protein abundance": "0.888 ± 0.13"}
{"target": "UniProt Q9BQC6", "NP40-soluble protein abundance": "0.906 ± 0.085"}
{"target": "SH3GL1 (UniProt Q99961)", "NP40-soluble protein abundance": "0.976 ± 0.042"}
{"target": "SMAD5 (UniProt Q99717)", "NP40-soluble protein abundance": "1.133 ± 0.0084"}
{"target": "TARS2 (UniProt Q9BW92)", "NP40-soluble protein abundance": "1.05 ± 0.082"}
{"target": "MRPL9 (UniProt Q9BYD2)", "NP40-soluble protein abundance": "0.913 ± 0.035"}
{"target": "POLR3C (UniProt Q9BUI4)", "NP40-soluble protein abundance": "0.988 ± 0.028"}
{"target": "GRWD1 (UniProt Q9BQ67)", "NP40-soluble protein abundance": "1.03 ± 0.038"}
{"target": "UniProt Q96T76 and related entries", "NP40-soluble protein abundance": "0.947 ± 0.1"}
{"target": "UniProt Q9BXW9 and related entries", "NP40-soluble protein abundance": "0.919 ± 0.019"}
{"target": "DNAJC7 (UniProt Q99615)", "NP40-soluble protein abundance": "0.941 ± 0.026"}
{"target": "SDF2 (UniProt Q99470)", "NP40-soluble protein abundance": "0.975 ± 0.013"}
{"target": "BACH2 (UniProt Q9BYV9)", "NP40-soluble protein abundance": "0.972 ± 0.029"}
{"target": "UniProt Q99729-3|Q99729", "NP40-soluble protein abundance": "0.984 ± 0.11"}
{"target": "UniProt Q9BRA0 and related entries", "NP40-soluble protein abundance": "0.925 ± 0.065"}
{"target": "VAT1 (UniProt Q99536)", "NP40-soluble protein abundance": "0.971 ± 0.033"}
{"target": "RBCK1 (UniProt Q9BYM8)", "NP40-soluble protein abundance": "0.95 ± 0.028"}
{"target": "UniProt Q99873-3|Q99873-4", "NP40-soluble protein abundance": "1.07 ± 0.17"}
{"target": "UniProt Q9BYX2 and related entries", "NP40-soluble protein abundance": "0.986 ± 0.033"}
{"target": "UniProt Q99708-3|I6L8A6 and related entries", "NP40-soluble protein abundance": "0.982 ± 0.042"}
{"target": "BRIP1 (UniProt Q9BX63)", "NP40-soluble protein abundance": "1.03 ± 0.053"}
{"target": "AGPAT1 (UniProt Q99943)", "NP40-soluble protein abundance": "0.967 ± 0.032"}
{"target": "UniProt Q9BRR9-2|Q9BRR9-4|Q9BRR9-5|R4GN15", "NP40-soluble protein abundance": "0.863 ± 0.052"}
{"target": "PSMG3 (UniProt Q9BT73)", "NP40-soluble protein abundance": "0.968 ± 0.033"}
